Drawing on the supplement of paper PMC12819154, “High-throughput peptide-centric local stability assay extends protein–ligand identification to membrane proteins, tissues and bacteria” (Nature Structural & Molecular Biology, 2025), this text covers log2 fold change for eleven targets.

Sequences of proteins named here, by UniProt entry; tags and fusion partners are left off. A change or cut given only in a name is not applied to a line headed by its entry.
UniProt Q9CQP3: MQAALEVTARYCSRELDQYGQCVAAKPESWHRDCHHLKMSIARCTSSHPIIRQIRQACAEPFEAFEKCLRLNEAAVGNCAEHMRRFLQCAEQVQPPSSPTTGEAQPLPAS
UniProt Q9CQ04: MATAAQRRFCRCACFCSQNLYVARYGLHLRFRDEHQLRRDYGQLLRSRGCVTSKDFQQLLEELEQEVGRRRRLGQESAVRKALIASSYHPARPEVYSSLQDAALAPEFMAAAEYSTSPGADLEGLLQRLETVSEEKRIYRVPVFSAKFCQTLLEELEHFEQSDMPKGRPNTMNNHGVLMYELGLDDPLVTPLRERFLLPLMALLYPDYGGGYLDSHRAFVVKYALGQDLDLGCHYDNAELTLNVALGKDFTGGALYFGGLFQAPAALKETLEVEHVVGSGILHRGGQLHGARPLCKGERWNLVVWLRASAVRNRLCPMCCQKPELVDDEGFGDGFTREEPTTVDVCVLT
UniProt Q99LW6: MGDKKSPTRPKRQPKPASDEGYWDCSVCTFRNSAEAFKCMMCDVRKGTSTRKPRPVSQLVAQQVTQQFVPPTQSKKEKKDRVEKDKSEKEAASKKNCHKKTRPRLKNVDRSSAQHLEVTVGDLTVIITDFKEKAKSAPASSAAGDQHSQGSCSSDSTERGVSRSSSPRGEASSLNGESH
UniProt Q9CQF4: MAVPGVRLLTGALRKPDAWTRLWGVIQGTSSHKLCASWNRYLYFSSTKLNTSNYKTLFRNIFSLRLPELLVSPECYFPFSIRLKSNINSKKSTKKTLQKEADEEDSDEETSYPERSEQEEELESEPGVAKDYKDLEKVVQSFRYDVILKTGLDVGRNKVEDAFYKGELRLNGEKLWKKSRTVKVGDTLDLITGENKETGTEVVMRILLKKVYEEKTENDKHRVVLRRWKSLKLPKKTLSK
UniProt Q99LJ2: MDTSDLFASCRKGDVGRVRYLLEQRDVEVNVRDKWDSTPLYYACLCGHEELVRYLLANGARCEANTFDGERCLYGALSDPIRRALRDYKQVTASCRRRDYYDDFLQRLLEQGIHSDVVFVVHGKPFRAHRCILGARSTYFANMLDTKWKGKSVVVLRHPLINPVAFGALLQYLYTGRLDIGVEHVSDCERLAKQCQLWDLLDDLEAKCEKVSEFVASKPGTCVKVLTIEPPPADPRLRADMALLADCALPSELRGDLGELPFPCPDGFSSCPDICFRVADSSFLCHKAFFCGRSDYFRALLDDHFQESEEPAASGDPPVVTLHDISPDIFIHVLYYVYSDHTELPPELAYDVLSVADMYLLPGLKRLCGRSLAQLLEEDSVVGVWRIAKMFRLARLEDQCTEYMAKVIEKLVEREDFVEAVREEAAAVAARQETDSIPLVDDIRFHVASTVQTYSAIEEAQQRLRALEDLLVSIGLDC
UniProt Q99PG2: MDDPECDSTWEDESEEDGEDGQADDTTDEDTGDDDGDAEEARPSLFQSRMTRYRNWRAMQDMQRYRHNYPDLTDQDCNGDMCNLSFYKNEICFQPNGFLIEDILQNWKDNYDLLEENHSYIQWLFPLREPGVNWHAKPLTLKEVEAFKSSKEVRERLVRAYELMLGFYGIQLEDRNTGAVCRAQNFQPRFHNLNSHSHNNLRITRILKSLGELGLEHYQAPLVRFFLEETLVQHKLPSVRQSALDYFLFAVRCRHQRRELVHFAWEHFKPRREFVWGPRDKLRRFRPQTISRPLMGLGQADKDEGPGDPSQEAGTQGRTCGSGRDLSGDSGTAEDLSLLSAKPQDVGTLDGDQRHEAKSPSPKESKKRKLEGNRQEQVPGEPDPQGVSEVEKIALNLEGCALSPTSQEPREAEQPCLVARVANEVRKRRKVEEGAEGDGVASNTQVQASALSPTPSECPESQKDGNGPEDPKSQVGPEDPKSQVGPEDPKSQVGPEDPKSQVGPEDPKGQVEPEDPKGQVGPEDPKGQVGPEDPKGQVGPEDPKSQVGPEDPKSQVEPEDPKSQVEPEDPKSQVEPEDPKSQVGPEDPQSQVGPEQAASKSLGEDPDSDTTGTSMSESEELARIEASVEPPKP
UniProt Q99MS8: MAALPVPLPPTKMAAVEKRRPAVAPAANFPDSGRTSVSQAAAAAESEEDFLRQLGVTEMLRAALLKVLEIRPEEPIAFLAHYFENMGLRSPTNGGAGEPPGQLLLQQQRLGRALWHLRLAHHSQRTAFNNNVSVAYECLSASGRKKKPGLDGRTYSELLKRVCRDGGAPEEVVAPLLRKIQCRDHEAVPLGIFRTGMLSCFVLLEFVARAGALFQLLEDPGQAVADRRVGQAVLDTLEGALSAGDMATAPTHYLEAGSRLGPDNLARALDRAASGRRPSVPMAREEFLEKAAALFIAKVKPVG
UniProt Q9CR37: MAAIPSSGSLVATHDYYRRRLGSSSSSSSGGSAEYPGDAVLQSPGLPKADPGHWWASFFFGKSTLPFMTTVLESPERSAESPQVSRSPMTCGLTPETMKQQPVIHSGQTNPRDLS
UniProt Q99LJ8: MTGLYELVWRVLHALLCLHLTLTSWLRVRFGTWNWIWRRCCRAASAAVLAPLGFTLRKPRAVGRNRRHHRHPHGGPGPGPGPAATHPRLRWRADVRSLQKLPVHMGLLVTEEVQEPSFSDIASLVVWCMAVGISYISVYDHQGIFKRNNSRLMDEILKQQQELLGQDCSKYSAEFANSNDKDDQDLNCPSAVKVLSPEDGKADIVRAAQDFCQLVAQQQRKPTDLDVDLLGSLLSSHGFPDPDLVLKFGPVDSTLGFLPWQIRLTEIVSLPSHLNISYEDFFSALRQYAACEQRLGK
UniProt Q9CQW7: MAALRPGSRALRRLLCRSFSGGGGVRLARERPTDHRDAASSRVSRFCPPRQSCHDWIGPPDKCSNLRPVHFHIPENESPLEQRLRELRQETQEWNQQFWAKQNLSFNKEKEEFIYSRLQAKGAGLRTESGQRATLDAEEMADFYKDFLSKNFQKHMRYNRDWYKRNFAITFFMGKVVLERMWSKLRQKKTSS

Some of the results follow. Small differences around the control level are noise.

Compound in the assay: CN[C@@H]1C[C@H]2O[C@@](C)([C@@H]1OC)n1c3ccccc3c3c4c(c5c6ccccc6n2c5c31)C(=O)NC4 [staurosporine]
Description: log2 fold change of tryptic peptide abundance, ligand vs vehicle (limited proteolysis) (log2 ratio); higher = more trypsin-susceptible (destabilized). To be noted: ligand concentration: 20 uM; sample: mouse liver crude lysate; replicate design: treated separately.
For “UniProt Q9CQP3 (peptide sequence: ELDQYGQCVAAKPESWHR, peptide start residue: 15)”, the log2 fold change is -0.453.
The result for “UniProt Q9CQ04 (peptide sequence: DYGQLLR, peptide start residue: 40)” reads -0.117; that for “UniProt Q99LW6 (peptide sequence: KPRPVSQLVAQQVTQQFVPPTQSK, peptide start residue: 52)”, -0.281; that for “UniProt Q9CQF4 (peptide sequence: NKVEDAFYK, peptide start residue: 157)”, 0.195.
As for “UniProt Q99LJ2 (peptide sequence: YLLANGAR, peptide start residue: 54)”, the log2 fold change is -0.185.
The figure for “UniProt Q9CQL5 (peptide sequence: ENEAVAPEFTNRNPR, peptide start residue: 40)” is -0.378.
Turning to “UniProt Q99PG2 (peptide sequence: ELVHFAWEHFKPR, peptide start residue: 259)”, the log2 fold change came to 0.227.
The figure for “UniProt Q99MS8 (peptide sequence: TYSELLKR, peptide start residue: 154)” is -0.38.
The result for “UniProt Q9CR37 (peptide sequence: QQPVIHSGQTNPR, peptide start residue: 100)” reads 0.191; that for “UniProt Q99LJ8 (peptide sequence: HPHGGPGPGPGPAATHPR, peptide start residue: 71)”, 0.121; that for “UniProt Q9CQW7 (peptide sequence: ERPTDHR, peptide start residue: 30)”, -0.153.
